Results: paper PMC12628478
Results are given in words; binding and its absence hold for the method and conditions named. In cells and extracts the contact can be indirect. Some binding calls cover weakened binding; strength is not graded here.

Chains of the proteins cited; added tags and fusions are not shown.
UniProt Q13263: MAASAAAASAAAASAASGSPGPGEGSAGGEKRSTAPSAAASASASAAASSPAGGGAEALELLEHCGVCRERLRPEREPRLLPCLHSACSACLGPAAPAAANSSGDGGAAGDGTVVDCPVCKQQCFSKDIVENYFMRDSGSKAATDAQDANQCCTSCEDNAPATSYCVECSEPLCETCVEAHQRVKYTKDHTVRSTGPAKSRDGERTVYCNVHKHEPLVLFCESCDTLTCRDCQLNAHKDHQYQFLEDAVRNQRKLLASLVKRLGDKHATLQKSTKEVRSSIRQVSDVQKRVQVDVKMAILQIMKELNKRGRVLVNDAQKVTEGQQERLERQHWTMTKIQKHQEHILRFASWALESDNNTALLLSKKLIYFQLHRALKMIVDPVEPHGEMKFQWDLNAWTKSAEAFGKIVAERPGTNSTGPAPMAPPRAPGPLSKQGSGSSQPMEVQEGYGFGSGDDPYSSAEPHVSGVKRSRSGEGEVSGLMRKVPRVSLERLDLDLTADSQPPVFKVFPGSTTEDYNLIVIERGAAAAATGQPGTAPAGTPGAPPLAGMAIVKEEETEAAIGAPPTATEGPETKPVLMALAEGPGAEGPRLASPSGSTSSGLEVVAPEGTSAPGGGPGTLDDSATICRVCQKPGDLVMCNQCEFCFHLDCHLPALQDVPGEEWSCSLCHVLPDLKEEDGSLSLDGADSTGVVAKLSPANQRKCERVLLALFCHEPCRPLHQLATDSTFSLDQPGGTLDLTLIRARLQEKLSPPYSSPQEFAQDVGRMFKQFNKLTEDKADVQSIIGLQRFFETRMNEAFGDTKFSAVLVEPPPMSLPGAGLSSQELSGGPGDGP

Molecular target: T1, aldehyde dehydrogenase 4A1 (ALDH4A1) (human (endogenous in HUVECs)) (UniProt P30038)
T1 sequence: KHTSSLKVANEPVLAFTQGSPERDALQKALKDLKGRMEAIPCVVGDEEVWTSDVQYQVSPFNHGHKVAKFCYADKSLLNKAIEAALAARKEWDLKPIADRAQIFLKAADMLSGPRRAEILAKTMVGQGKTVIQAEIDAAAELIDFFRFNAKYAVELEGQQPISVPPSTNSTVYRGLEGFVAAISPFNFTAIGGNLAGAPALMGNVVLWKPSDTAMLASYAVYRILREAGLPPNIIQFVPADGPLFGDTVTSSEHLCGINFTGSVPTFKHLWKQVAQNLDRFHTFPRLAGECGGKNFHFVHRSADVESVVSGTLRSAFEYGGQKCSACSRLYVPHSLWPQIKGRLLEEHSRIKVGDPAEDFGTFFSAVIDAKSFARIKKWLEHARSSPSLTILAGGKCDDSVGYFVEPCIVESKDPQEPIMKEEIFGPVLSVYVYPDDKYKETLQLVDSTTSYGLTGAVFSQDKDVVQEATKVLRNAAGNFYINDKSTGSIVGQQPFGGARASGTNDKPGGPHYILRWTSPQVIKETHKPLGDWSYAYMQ
Assay: co-IP; HUVEC lysate; rProtein A/G MagPoly beads loaded with anti-ALDH4A1 or anti-Trim28 antibodies (IP/co-IP kit), eluate read by western blotting

Substance: Tripartite motif-containing 28 (Trim28) (from UniProt Q13263 1-835)
- binding: binds
